We go through 107 sequences from PubChem BioAssay AID1508600 (Functional Genomics Laboratory (NCATS/FGL), 2020).

Out of some 53,000 sequences screened, about 3,700 (7%) were called active.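 The calls were made as follows: active = gene knockdowns whose robust z-score for IL-1 alpha signal is at least 2 or at most -2, so actives lie on both sides; inactive = the rest.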 Some of the results follow.

This test is described as follows: Components of the Cytosolic LPS Sensing Pathway: Gene Identification via Genome-wide siRNA Screen.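 Also: robust z of the log signal after scaling to non-targeting control siRNA wells of the plate.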 The conditions noted are these: RAW264.7 macrophages, IL-1a HTRF, actives lie on both sides, screened at 100 nM (by protocol), cells primed 5 h with Pam3CSK4 first. Put shortly: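 Three distinct siRNAs per gene were tested singly at 100 nM in RAW264.7 macrophages. Following Pam3CSK4 priming and 24 hour LipidA transfection, IL-1a secretion was read by HTRF.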
For the sequence GCUAAAGCCGUACUCUGAGTT against Mark1, the z-score is inactive: -1.65. Take GGCUAUUACUUUUAAGAACTT against Capn1: the z-score was inactive: 0.0643. Turning to GCGGGACUGACCUCUUAAUTT against Guk1, the z-score was inactive: -0.244.

As to GGGACUCAAAAGUCAAGUGTT against Pramel48, the z-score is inactive: 0.9.

For the sequence GGCGGCUGAAAGUUUUGCATT against Pklr, the z-score is inactive: 0.94. Turning to GGUGACCUUUACCCUCACATT against Mocs1, the z-score was inactive: -0.149. In the case of GCACAAACACCACUUUUCATT against Asb12, the z-score is inactive: -0.373. Turning to GGAAUUUCUACUACAUCACTT against Hs6st3, the z-score was inactive: 0.0202. For the sequence GGCUGUGGAAAGAUGGACUTT against Ugt2b36, the z-score was inactive: 0.254. Take GGAGCCUCCAAGUUGUAAGTT against Ifi27l2b: the z-score was inactive: 0.748.

GGAAACUGUUUAGGAAUUGTT against Pnpla3: the z-score was inactive: 0.253. As for GGAUAUUCUUCCAGUCUUUTT against Pramel31, the z-score was inactive: -0.177. With GGACUUCCUGAAAGGCGAATT against H2-Q5, the z-score was inactive: -0.388. As for GGACUUAAUAGUCUCUGGGTT against Gemin5, the figure is inactive: -0.616; as for CGGAUGAUUGUCACCCUGUTT against Mesp1, inactive: 0.436. For GGACCACCACCGUCUAUUUTT against Adora3, the z-score is inactive: -0.612. As to GGACUUAUUCGAUAUAGUATT against Nt5c1b, the z-score is inactive: -1.23. Consider GGUGUCCUCAAAGACUUUCTT against Pgc, for which the z-score was inactive: -0.343. As for GGAAUAAAGAAUGGUAUACTT against Zfp280d, the figure is inactive: -0.0544; as for GGAGCUUCGGGAGAUGAUUTT against Fdxr, inactive: 0.357.

In the case of GGAAAACAUUAAGAAGGGCTT against Ccn2, the z-score was active: 3.41.

With GCUUGUUGCAUGCUUAUCUTT against Tiaf2, the z-score is inactive: -0.933. With GGUAUCUAAGUGCUGCACUTT against Baiap2, the z-score is inactive: -0.293. GGUGGAACCUCUGAGAAAATT against Ccdc157: the z-score is inactive: 0.559. GGAGCUGUCAUUUAAGAAATT against Sorbs2: the z-score is active: 2.42. In the case of “GGUUCAAGGACACUUUCACTT against 0610012G03Rik”, the z-score was inactive: -0.137. Turning to CCACUGGUCCAUCCAAAUCTT against Cyp21a1, the z-score was inactive: 1.47. As for GUUUGGCUUAGCUGCUUUCTT against Olfr494, the figure is inactive: 0.521; as for GGAUCAUUUGAAAUUGCUGTT against Dmac2l, active: 2.88.

Take GGAUGGUAACCAUCAUAUUTT against Vmn1r54: the z-score is inactive: -0.887. For UGGAAUAAUUACCCAUGCUTT against Gm3696, the z-score is inactive: 1.03.

For “GGACAAAUUGAGAAAGACATT against C130026L21Rik”, the z-score is inactive: 1.12. Take GGAGAGAGUUUUUGUUUUUTT against Fam53c: the z-score was inactive: 0.723. Regarding GCGAACAUCACGUCCGAUGTT against Minpp1, the z-score is inactive: 0.595. On to GGGACUAGACAUUUCUGUGTT against Mien1, for which the z-score is inactive: -0.36. In the case of GGGUAUUCAUUGAGUGGUCTT against Gnb4, the z-score is inactive: -1.68. As for GCUGAUGUAAGUAUUCUAGTT against Pdcl, the figure is inactive: 0.1; as for GGACUCUCAGGUAAAUGCATT against Mlst8, inactive: -0.939; as for GGGCACAGGCGAACUAUGUTT against Arhgap25, inactive: -1.26. Then GGAAAACAAUUCGUCUGCCTT against Oit1, with inactive: -0.463.

Regarding GGGAGAUGUUGUCAGGGUCTT against Rnasel, the z-score is inactive: -0.476. Take CGAAGUGGUUUUAUGUACUTT against Cdkn2b: the z-score was active: -2.39.

Consider GGAUUCUUUGAUUCAAUGUTT against Tlm, for which the z-score was inactive: 0.98. Turning to CGAAGAUAUUACUAUUCUGTT against Lama2, the z-score is inactive: 1.65. On to GGUCGUCCAGCUGAAGAACTT against Mecr, for which the z-score was inactive: 0.721. As for GCUGCUCUCCCUUUAUGACTT against Lao1, the figure is inactive: 0.435. As to CCACUUCUUUGCAUUUAAGTT against Slc28a3, the z-score is inactive: 0.277. For GGAGGAUUAUUACAGAAGGTT against Lhx9, the z-score is inactive: 1.57. As to GGUCCAUCAGGAAAAUCAATT against Obox6, the z-score was inactive: 0.0445. For GCGCAUCAACAGAGAGGUUTT against Lama2, the z-score was inactive: 0.325.

With GCCAGCAACAGGAUGAUAUTT against Wnk1, the z-score is inactive: 0.364. With GGAAAUGGAUCCAGAAUAUTT against Smarca1, the z-score was inactive: -1.12. As for GGUGACACAUUGUUUGUUGTT against Hagh, the z-score is inactive: -0.458. Consider CCUACAGAAGGUGAAUACUTT against Traf7, for which the z-score was inactive: -1.78. Regarding GGCUGAAUAAAAUAAGUGUTT against Adra1a, the z-score was inactive: -1.1. Take CCACAAGUUCCACACUCCATT against Olfr1163: the z-score is inactive: 0.42.

Consider CCGGUCUCAAAAUUAAGAATT against Themis, for which the z-score is inactive: -0.327. Take GGUGUUGUAAGUGAUAAGATT against Serpina5: the z-score was inactive: -0.338.

On to GGGAAUGACAGAAAUAUAATT against Golm1, for which the z-score is inactive: 0.923. As for GCAUGGGUGAUCUCUGUAATT against Defb50, the figure is inactive: -0.186; as for CCUCGAAUCCAGUGUCAGATT against Fxyd5, inactive: -0.824; as for GGUUGGUGAUCAACAUCUCTT against Kcna6, inactive: -0.878. Regarding CCCACAGUAUAGAAUGUGATT against Aldh1a2, the z-score is inactive: -1.27. Regarding GGUGGUCAUCAACACACAGTT against Caly, the z-score is inactive: -0.536. As for CCUUAGCAGAAUUGAGUCGTT against Kti12, the figure is inactive: 1.33; as for CGCGUUGGCAGAAAUUGAATT against Nipbl, inactive: -1.96. As for GGUCUCACUGAAAAUGAAATT against Ces1g, the figure is inactive: -0.656; as for GGUACCAAAUUGUUUAACATT against Ndufv1, inactive: 1.22. Regarding GGUCAUAGAACUCUGUAUGTT against Slc4a8, the z-score was inactive: -0.576. GGAAAAAUACUUGAUCUCCTT against Card10: the z-score was inactive: 0.0392. As for GCUGUUGGGAUUGUACCACTT against Dhx9, the z-score is inactive: -0.497. On to GCGAGUCUCACAUCAGUGATT against Tshz3, for which the z-score is active: 2.68. As to CCUUAGGCAUGGUCUGGACTT against Gal3st2, the z-score was inactive: 0.897. In the case of GGGCUUACCUAUGUCCCUCTT against Olfr406, the z-score is inactive: -0.779. For CCUUCUGGAGUACAUAUCCTT against Trip6, the z-score was inactive: 0.16. Then GGUGUCUACUCUGAGUUGCTT against Pan2, with inactive: 1.94. With CGGCAAGCCCAAAAAGGUCTT against Dlx3, the z-score was active: -2.34. As for GGAGGAAGAAAUGUUUCGCTT against Slc9a8, the z-score was inactive: -1.67.

Consider GGGUCUGGUUUAUUCAUGUTT against Zic1, for which the z-score is inactive: -1.22.

GGAAGUAUGCAGAAGACGATT against Sertad4: the z-score was inactive: 0.286. As for GGAGGACACUCAGAAGAAATT against Syne2, the figure is inactive: 0.972; as for CCAAGACAAGAGCGAUUAATT against Letmd1, inactive: 0.00625.

Take CCUUGGUACUUCGAGUUUATT against Gpr87: the z-score was inactive: 0.0711. GGUGAAGAAGACUCAUGAATT against Gnb1l: the z-score was inactive: -0.875.

On to GCCAACCCUGAAAACCCUUTT against Gc, for which the z-score was active: -2.54.

Take GGAGUUGGCUAAGCUCUCATT against Elmo2: the z-score was inactive: -1.51. In the case of GCAUUUAAGGACCUUGUAATT against Olfr813, the z-score was inactive: -1.5. Regarding GGCAUAAUCUUCCAUUGUCTT against Klhl23, the z-score was inactive: 0.455. With GGAAUCAGGACAUUAGUGATT against Olfr868, the z-score is inactive: 0.359.

Regarding CCUCCAUUGACGCAAUAUCTT against Mvk, the z-score was inactive: -0.809. Turning to CCUGAUGCACGUGCUAAAGTT against Ripk1, the z-score is inactive: 0.583.

With GCUGGGAAGGUGACGUAAUTT against Lrrc59, the z-score was inactive: -0.481. Regarding GCCGUGGAUGUCAUUUACUTT against Depdc7, the z-score was inactive: 1.21.

For the sequence GGAGCUGGAAGACACGAGATT against Ccdc113, the z-score was inactive: -1.89. Take GGUUGUACUUGUUUUUCCUTT against Dtwd1: the z-score was inactive: 1.35.

As for CUCACAAGUCAAAGCCUACTT against Zfp182, the z-score was inactive: 0.121. With CCACCAAUGAUUUGAUGCATT against Gpr75, the z-score is inactive: -0.0162. On to CGUAUCGAUGUGGAUAAUATT against Tpst1, for which the z-score was inactive: 0.425. For CCUAGCAACAUUCUUUAUGTT against Rps6ka3, the z-score was inactive: 0.106. For the sequence GCUGAUCACACCAUCCCUATT against Hccs, the z-score is inactive: -0.789. On to GGACAACAGCUGAAGAACUTT against Slc35a1, for which the z-score was inactive: -0.798. As for GCCACAACAAACCUACGACTT against Xpc, the figure is inactive: -1.32; as for GGCUGAAGAUGGAGAGAACTT against Tbca, inactive: 0.263. In the case of GGCUAUGCAAGUGUUCUCUTT against Scgb2b20, the z-score was inactive: 0.103.

Regarding GCUGAUGGUAAAUUCACAGTT against Serpinb3c, the z-score was inactive: -1.01. For “GGCCAGCUUUUCCUAGAUGTT against C030006K11Rik”, the z-score is inactive: 0.00752. As for GCAAACUUUUUCUGUAAAGTT against Atg4a, the figure is inactive: 0.408.
